Measurements from paper PMC12650144, “Interactive Role of the DHPR β1a SH3 Domain in Skeletal Muscle Excitation–Contraction Coupling” (Biomolecules, 2025).
Results are given in words; binding and its absence hold for the method and conditions named.

Protein sequences, listed by entry. Tags and fused reporters are not part of them. Residues count along the entry.
UniProt Q8CC27: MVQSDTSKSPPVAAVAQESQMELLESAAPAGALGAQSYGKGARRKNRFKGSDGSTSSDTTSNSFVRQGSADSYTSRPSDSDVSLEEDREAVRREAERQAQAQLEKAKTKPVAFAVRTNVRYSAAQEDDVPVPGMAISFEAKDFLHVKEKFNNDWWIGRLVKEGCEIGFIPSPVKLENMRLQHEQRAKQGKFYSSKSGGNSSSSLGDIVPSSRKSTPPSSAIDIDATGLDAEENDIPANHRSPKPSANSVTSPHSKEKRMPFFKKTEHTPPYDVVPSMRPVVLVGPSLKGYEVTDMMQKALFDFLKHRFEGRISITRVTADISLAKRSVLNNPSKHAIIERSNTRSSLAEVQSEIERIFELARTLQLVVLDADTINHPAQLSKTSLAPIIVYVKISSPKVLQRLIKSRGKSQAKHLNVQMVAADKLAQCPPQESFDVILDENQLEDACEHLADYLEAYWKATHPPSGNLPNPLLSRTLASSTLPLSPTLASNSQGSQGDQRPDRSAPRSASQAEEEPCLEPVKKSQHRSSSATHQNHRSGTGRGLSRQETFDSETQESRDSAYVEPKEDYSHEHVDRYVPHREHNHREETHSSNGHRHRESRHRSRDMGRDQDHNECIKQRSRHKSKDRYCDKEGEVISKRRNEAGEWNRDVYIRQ
UniProt P07293, residues 720-765: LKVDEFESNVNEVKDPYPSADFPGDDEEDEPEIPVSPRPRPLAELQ

Biological target: DHPR β2a subunit, full length (mouse) (UniProt Q8CC27)
Experiment: other fluorescence titration; tryptophan fluorescence quenching: intrinsic fluorescence of the β subunit or β1a-SH3 domain in the cuvette (sub-micromolar; 50 nM β1a-FL for the AID titration) monitored while titrating the II-III loop or peptides; excitation 280 nm, emission 340 nm; corrected for dilution and intrinsic fluorescence of the titrant; nonlinear regression; both purified

With “α1s II–III loop C region peptide (residues 720–765) (from UniProt P07293 720-765)” as the substance, how does the binding read?
The binding was “no binding”.
